Results are given in words; binding and its absence hold for the method and conditions named. Binding can be weak; no strength is given. Tags and fused reporters may be left off the sequences shown.

From publication PMC12327844 come the findings set out here.

For assay [1], the target named is T1, GST-tagged GtGpsB (Geobacillus thermodenitrificans NG80-2) (UniProt A4IN56).
T1 sequence: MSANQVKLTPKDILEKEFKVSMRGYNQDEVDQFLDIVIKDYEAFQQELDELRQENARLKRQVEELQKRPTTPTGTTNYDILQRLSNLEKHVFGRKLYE
The assay can be described thus: pull-down; GST pulldown with 2 mM ATP; 1 nmol GST-tagged bait on glutathione agarose beads, 10 nmol prey; SEC buffer, room temperature; Coomassie-stained SDS-PAGE; both purified.

The target of assay [2] is T1, GST-tagged GtGpsB (Geobacillus thermodenitrificans NG80-2). Put plainly: pull-down; GST pulldown with GST-tagged GtGpsB as bait, with and without ATP ('+'); samples incubated at room temperature for an hour before SDS-PAGE loading (Figure S7); both purified.
For assay [3] the target is unchanged. The assay can be described thus: pull-down; GST pulldown with 2 mM ADP; 1 nmol GST-tagged bait on glutathione agarose beads, 10 nmol prey; SEC buffer, room temperature; Coomassie-stained SDS-PAGE; both purified.
Assay [4] has the same target. Put plainly: pull-down; GST pulldown, no nucleotide (Apo); 1 nmol GST-tagged bait on glutathione agarose beads, 10 nmol prey; SEC buffer (20 mM HEPES pH 7.5, 200 mM NaCl, 20 mM KCl, 20 mM MgCl2), room temperature; Coomassie-stained SDS-PAGE; both purified.
Assay [5] shares this target. Put plainly: pull-down; GST pulldown, nucleotide not stated for these panels (Figure S6, Figure 3b); GST-tagged bait on glutathione agarose beads; SEC buffer, room temperature; Coomassie-stained SDS-PAGE; both purified.
Assay [6] deals with T2, GST-GtFliY-N36 (Geobacillus thermodenitrificans NG80-2).
T2 sequence: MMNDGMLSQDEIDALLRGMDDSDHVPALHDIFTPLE
The assay can be described thus: pull-down; GST pulldown with 2 mM ATP; 1 nmol GST-tagged bait on glutathione agarose beads, 10 nmol prey; SEC buffer, room temperature; Coomassie-stained SDS-PAGE; both purified.

For assay [7] the target is unchanged. The assay can be described thus: pull-down; GST pulldown, no nucleotide (Apo); 1 nmol GST-tagged bait on glutathione agarose beads, 10 nmol prey; SEC buffer (20 mM HEPES pH 7.5, 200 mM NaCl, 20 mM KCl, 20 mM MgCl2), room temperature; Coomassie-stained SDS-PAGE; both purified.

For “GtPBP1^1-33 (Geobacillus thermodenitrificans NG80-2) (domain or fragment)”, the binding result in assay [1] is listed as “binds”.
Turning to “GtFlhG D60A (Geobacillus thermodenitrificans NG80-2)”, the binding entry in assay [2] is listed as “binds”.
With “GtFlhG-ΔMTS (Geobacillus thermodenitrificans NG80-2) (domain or fragment)”, the binding entry in assay [3] is recorded as “binds weakly”; in assay [1] it was “binds”; in assay [4], “binds weakly”.
Consider “GtFlhG F215S (Geobacillus thermodenitrificans NG80-2)”, for which the binding result in assay [5] was “binds weakly”.
In the case of GtFlhG (from UniProt A4IMB4), the binding result was “binds weakly” in assay [3]; “binds” in assay [6]; “binds” in assay [1]; “binds” in assay [7]; “binds weakly” in assay [4].
On to “GtFlhG R207E (Geobacillus thermodenitrificans NG80-2)”, for which the binding result in assay [5] is recorded as “binds weakly”.
For “GtFlhG K36A (Geobacillus thermodenitrificans NG80-2)”, in assay [2], the binding result was “no binding (tested: 10 nmol of prey protein)”.
